The series can be described thus: peptide synthesis. The conditions noted are these: whole synthesis, 220 nm.

These results are taken from PMC9237094 (Scientific Reports, 2022).

HELM strings list residues between dots; [ac] is acetyl, [am] amide, other brackets name non-standard units.

As to “PEPTIDE1{H.[dW].A.W.[dF].K.G.G.A.A.V.A.P.A.A.A.R.M}$$$$V2.0”, the “final HPLC purity” value was determined as 96.55%. For “PEPTIDE1{H.[dW].A.W.[dF].K.[am]}$$$$V2.0” the value was 97.67%.
